Measured values: PubChem BioAssay AID493014 (National Center for Advancing Translational Sciences (NCATS), 2011)
The whole screen tested about 340,000 compounds, of which about 170 (0.05%) were called active. Inconclusive results, whose numbers are uncertain, are shown with a selection of clear calls. The call rests on the fitted dose curve; in most records, active means well fitted inhibition curve with a large enough effect in the signal ratio, with a control signal flat (not every such curve was filed as active); inconclusive means small, poorly fitted or top-dose-only effect, or effect the other way, or a change in a side signal; inactive means flat fitted curve, though single readings scatter; the % refers to the signal ratio. A potency beside an inconclusive call is a rough fit, not a confirmed value.

experiment: qHTS Assay to Find Inhibitors of Chronic Active B-Cell Receptor Signaling; conditions: ABC-DLBCL IkBa-CBG/CBR reporter, luminescence ratio (green luciferase fused to IkBa over red control in TMD8 lymphoma cells), 4 h; activity change, negative = inhibition: at 46.1 µM (top of the series);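 on activity change, negative = inhibition: plate controls were basal doxycycline-induced cells for no effect and cells given 10 µM MG132 for full effect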
In short: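 Concentration-response series (up to 46 uM) were applied to TMD8 dual-reporter cells for 4 h at 37C with doxycycline. Green/red ratio, after filter-overlap correction, defined %Activity; red signal alone was normalised to basal cells and zero luminescence.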
Potency means the concentration at half of the fitted maximal effect.

Q: With CC1CN(c2nc3ccccn3c(=O)c2/C=C(\C#N)C(N)=O)CC(C)O1 (stereo not drawn) as the compound, how does the activity change, negative = inhibition read?
A: inconclusive: 9.15%

Q: For CCOc1ccc(N2C(=O)C(CC(=O)Nc3ccc(F)cc3)N(Cc3ccccn3)C2=S)cc1 (stereo not drawn), which activity change, negative = inhibition is on record?
A: inconclusive: -26.2%

Q: Which activity change, negative = inhibition does the source give for Cc1ccc(NC(=O)CN2C(=O)NC3(CCc4ccccc43)C2=O)cc1S(=O)(=O)N1CCCCC1 (stereo not drawn) here?
A: inconclusive: 24.8%

Q: For O=C(CN1CCN(c2ccc(F)cc2)CC1)NCc1ccc(Cl)cc1, which activity change, negative = inhibition is on record?
A: inconclusive: -0.132%

Q: With CCn1cc(S(=O)(=O)N2CCCC2)cn1 as the compound, how does the activity change, negative = inhibition read?
A: inconclusive: -1.53%

Q: For Cc1ccc(C)c(NC(=S)N2CCC(c3nc4ccccc4s3)CC2)c1, which activity change, negative = inhibition is on record?
A: inconclusive: -10.2%

Q: For O=C(Cc1ccc(Br)cc1)NCCc1ccc(Cl)cc1Cl, which activity change, negative = inhibition is on record?
A: inconclusive: -0.125%

Q: For Cc1c(C#N)c2ccccc2n1CCOc1ccccc1F, which activity change, negative = inhibition is on record?
A: inconclusive: -12.2%

Q: With Cc1cc(C(=O)Cn2cnc3cc([N+](=O)[O-])ccc3c2=O)c(C)n1CC1CCCO1 (stereo not drawn) as the compound, how does the Potency read?
A: inconclusive: 35.5 µM [falling, single point]

Q: Which activity change, negative = inhibition does the source give for O=C(COC(=O)c1ccc(O)cc1)NCc1ccc2c(c1)OCO2 here?
A: inconclusive: -19%

Q: Which activity change, negative = inhibition does the source give for C=CC[C@@H](CC(=O)N(CCO)Cc1ccccc1)C(=O)N[C@H](COC(=O)[C@@H](CC=C)CC(=O)OC(C)(C)C)c1ccccc1 here?
A: inconclusive: -4.77%

Q: Which Potency does the source give for C(=N\NC1=Nc2cccc3cccc1c23)/c1ccccc1 here?
A: inconclusive: 23.1 µM [falling, single point]

Q: For O=C1NC(=Nc2ccccc2)S/C1=C\C=C\c1ccco1, which “activity change, negative = inhibition” value is on record?
A: inactive: 10.7%

Q: Which activity change, negative = inhibition does the source give for CCOC(=O)c1c(NC(=O)CNCC(O)CO)sc(C)c1C (stereo not drawn) here?
A: inconclusive: -1.85%

Q: With C/C(=N\NC(=O)Nc1ccccc1)c1ccccc1 as the compound, how does the activity change, negative = inhibition read?
A: inconclusive: -0.699%

Q: Which “activity change, negative = inhibition” value does the source give for NC(=O)c1nsc(C(=O)N(c2ccc(Cl)cc2)C(C(=O)NCC2CCCO2)c2cccs2)c1N (stereo not drawn) here?
A: inactive: 2.96%

Q: For COc1ccc(OC)c(-c2cc(C(=O)Nc3c(C)nn(Cc4ccccc4C)c3C)no2)c1, which Potency is on record?
A: inconclusive: 12.6 µM [falling, partial curve]

Q: With O=C(Cc1ccc(Cl)cc1)NNC(=S)NC(=O)c1cccs1 as the compound, how does the Potency read?
A: inconclusive: 17.8 µM [falling, single point]

Q: Which Potency does the source give for Cc1ccccc1-c1nnn(Cc2ccc(-c3nn[nH]n3)cc2)n1 here?
A: inconclusive: 35.5 µM [falling, single point]

Q: Which activity change, negative = inhibition does the source give for O=C(CCC(=O)N1CCN(c2ccccn2)CC1)Nc1nnc(C2CCCCC2)s1 here?
A: inconclusive: 8.89%

Q: For COC(=O)CSc1nnc(-c2ccc(OC)c(OC)c2)o1, which activity change, negative = inhibition is on record?
A: inconclusive: -3.08%

Q: Which activity change, negative = inhibition does the source give for CC1=CC(C)(C)Nc2ccc(OC(=O)c3cccnc3)cc21 here?
A: inconclusive: 16.1%

Q: For Cc1nc2ccccn2c1-c1csc(NCc2ccco2)n1, which activity change, negative = inhibition is on record?
A: inconclusive: 10.6%

Q: For CCO[C@@H]1OC(C(=O)Nc2ccccc2)=C[C@H](C2CC2)[C@H]1CCCO, which activity change, negative = inhibition is on record?
A: inconclusive: 13.9%

Q: With O=S(=O)(NCc1ccncc1)c1ccc(Br)s1 as the compound, how does the activity change, negative = inhibition read?
A: inconclusive: 7.76%

Q: Which activity change, negative = inhibition does the source give for C/C(=N\Nc1nccnc1Cl)c1ccc(F)cc1 here?
A: inconclusive: -11.5%

Q: With Cn1c(=NC(=O)c2cccc([N+](=O)[O-])c2)sc2ccccc21 as the compound, how does the activity change, negative = inhibition read?
A: inconclusive: 3.08%

Q: Which activity change, negative = inhibition does the source give for COc1ccc(CCNC(=O)c2c(-c3ccccc3Cl)noc2C)cc1 here?
A: inconclusive: 6.86%

Q: For Fc1ccc(NC(=S)N/N=C/c2ccc(F)c(F)c2)cc1, which Potency is on record?
A: inconclusive: 7.94 µM [falling, partial curve]

Q: Which activity change, negative = inhibition does the source give for Cc1ccc(C)c(OCc2cc(C(=O)N3CCNC(=O)C3)no2)c1 here?
A: inconclusive: 1.87%

Q: With CCc1ccc(NC(=O)N(CCN2CCOCC2)Cc2ccc3c(c2)CCCN3CC)cc1 as the compound, how does the Potency read?
A: inconclusive: 16.4 µM [falling, partial curve]

Q: For O=C(Nc1nnc(Cc2ccccc2)s1)Nc1ccccc1F, which activity change, negative = inhibition is on record?
A: inconclusive: 5.22%

Q: For Oc1cc(-c2ccncc2)cc2cccnc12, which Potency is on record?
A: inconclusive: 20.6 µM [falling, partial curve]

Q: Which activity change, negative = inhibition does the source give for Cc1ccc(/C=C/C(=O)Nc2ccc(Oc3ccccc3)cc2)o1 here?
A: inconclusive: 12.1%

Q: With COc1cc(C(=O)Nc2ccc3c(c2)N(C(=O)CCN(C)C)c2ccccc2CC3)cc(OC)c1OC as the compound, how does the Potency read?
A: inconclusive: 35.5 µM [falling, single point]

Q: For CC(NC(=O)c1ccco1)c1nc(-c2ccccc2)no1 (stereo not drawn), which activity change, negative = inhibition is on record?
A: inconclusive: 12%

Q: For COc1ccc(S(=O)(=O)N2CCCCC2)cc1NC(=O)CCNC(=O)c1ccc(Br)cc1, which “activity change, negative = inhibition” value is on record?
A: inactive: -0.636%

Q: For Cc1nn(-c2ccccc2)c(C)c1C(=O)OCC(=O)N1c2ccccc2NC(=O)C1(C)C, which Potency is on record?
A: inconclusive: 23.1 µM [falling, partial curve, poor fit]

Q: For CCOC(=O)C1=C(C)N(CC)C(=S)NC1c1ccc(Cl)cc1 (stereo not drawn), which activity change, negative = inhibition is on record?
A: inconclusive: 24.3%

Q: With CN1CCC(N(C)C(=O)COc2ccccc2Cl)CC1 as the compound, how does the activity change, negative = inhibition read?
A: inconclusive: 6.98%

Q: Which Potency does the source give for Cc1cc2nc(-c3ccccc3)cc(=O)n2[nH]1 here?
A: inconclusive: 20 µM [falling, single point]

Q: With O=C(CCCN1C(=O)c2cccc3cccc(c23)C1=O)N1CCN(c2ccccc2O)CC1 as the compound, how does the Potency read?
A: inconclusive: 7.31 µM [rising, partial curve, poor fit]

Q: With O=C1COc2ccc(C(=O)COC(=O)c3ccc([N+](=O)[O-])cc3Cl)cc2N1 as the compound, how does the activity change, negative = inhibition read?
A: inconclusive: 8.09%

Q: Which activity change, negative = inhibition does the source give for COc1cc(/C=N/OCC(=O)NC2CCCCC2)ccc1OCc1ccccc1 here?
A: inconclusive: -2.65%

Q: Which activity change, negative = inhibition does the source give for CN1C(=S)SC(C)(C)C1N(O)C(=O)Nc1ccc(Cl)cc1 (stereo not drawn) here?
A: inconclusive: 7.58%

Q: With Cc1ccc(-c2cc(C(=O)NC3CCCC3)no2)cc1 as the compound, how does the Potency read?
A: inconclusive: 17.8 µM [falling, partial curve]

Q: Which activity change, negative = inhibition does the source give for CC(C)(C)c1ccc(C(=O)N2CCN(Cc3ccccc3)CC2)cc1 here?
A: inconclusive: -7.82%

Q: With COc1ccc(-c2cc(=Nc3ccc(C(=O)O)cc3)c3cc(C)ccc3o2)cc1 as the compound, how does the activity change, negative = inhibition read?
A: inconclusive: 3.64%

Q: Which Potency does the source give for CC(=O)CCC1CC(c2ccc(Cl)cc2)=NO1 (stereo not drawn) here?
A: inconclusive: 4.11 µM [falling, partial curve]

Q: Which Potency does the source give for Cc1cc(C(=O)NNC(=O)c2ccc(Cl)cc2Cl)c(C)o1 here?
A: inconclusive: 18.4 µM [falling, single point]

Q: With C=CCC[C@H](Cc1ccc(F)cc1)C(=O)OC[C@@H](C)NC(=O)[C@@H](CC=C)CC(=O)N[C@H](CO)Cc1ccccc1 as the compound, how does the activity change, negative = inhibition read?
A: inconclusive: -14.7%

Q: With COc1ccccc1-n1ccnc(SCC(=O)NC2CCCC2)c1=O as the compound, how does the Potency read?
A: inconclusive: 2.31 µM [falling, partial curve, poor fit]

Q: With COc1ccc(OC)c(NC(=O)COC(=O)C2CCN(C(=O)c3ccc(Cl)cc3)CC2)c1 as the compound, how does the activity change, negative = inhibition read?
A: inconclusive: 16%

Q: With COc1ccc2c(c1)CC/C2=N\NC(=O)c1ccccc1 as the compound, how does the Potency read?
A: inconclusive: 18.4 µM [falling, partial curve]

Q: With CCOC(=O)[C@@H]1[C@H]2COc3ccc(Br)cc3[C@H]2N2C(=O)N(c3ccc(C(F)(F)F)cc3)C(=O)[C@]12C as the compound, how does the activity change, negative = inhibition read?
A: inconclusive: -5.82%

Q: For CCc1ccc(NC(=S)N(CCCN2CCN(C)CC2)Cc2cccs2)cc1, which activity change, negative = inhibition is on record?
A: inconclusive: -3.12%

Q: For CN(/N=C/c1ccc(Cl)cc1)c1ncc(Cl)cc1C(F)(F)F, which activity change, negative = inhibition is on record?
A: inconclusive: 23.5%

Q: With O=C(Cn1cccc1)Nc1ccc(F)cc1F as the compound, how does the activity change, negative = inhibition read?
A: inconclusive: -1.46%

Q: With O=C(CSc1c2c(nc3ccccc13)CCCC2)NCc1ccco1 as the compound, how does the activity change, negative = inhibition read?
A: inconclusive: -4.76%

Q: With COC(=O)C1=CN(CC2CCCO2)C=C(C(=O)OC)C1c1ccsc1 (stereo not drawn) as the compound, how does the “activity change, negative = inhibition” value read?
A: inactive: 0.95%

Q: With CC(C)(C)c1cc(-c2nc(N)nc(N)n2)c(O)c(C(C)(C)C)c1 as the compound, how does the activity change, negative = inhibition read?
A: inconclusive: 9.96%

Q: Which Potency does the source give for CCn1c([N+](=O)[O-])nc2c1c(=O)[nH]c(=O)n2C here?
A: inconclusive: 5.62 µM [cytotoxic, single point]

Q: With COc1ccc(N2CCN(C(c3nnnn3C3CCCC3)C(C)C)CC2)cc1 (stereo not drawn) as the compound, how does the activity change, negative = inhibition read?
A: inconclusive: 9.09%

Q: For N#CC1=C(N)NC(SCc2ccccc2)=C(C#N)C12CCCC2, which Potency is on record?
A: inconclusive: 29.1 µM [falling, single point]

Q: Which activity change, negative = inhibition does the source give for CC1(C(=O)Nc2nnc(C(C)(C)C)s2)Cc2ccccc2C(=O)O1 (stereo not drawn) here?
A: inconclusive: 6.43%

Q: With COc1ccc(CCNc2ncnc3c2[nH]c2cc(OC)c(OC)cc23)cc1OC as the compound, how does the activity change, negative = inhibition read?
A: inconclusive: -5.49%

Q: With CCCc1nc2ccccc2c(C(=O)OC(C)C(=O)NCc2ccc3c(c2)OCO3)c1CC (stereo not drawn) as the compound, how does the activity change, negative = inhibition read?
A: inconclusive: -0.269%

Q: For Cc1ccc(NC(=O)/C=C2\NC(=O)CS2)cc1, which activity change, negative = inhibition is on record?
A: inconclusive: 0.408%

Q: Which activity change, negative = inhibition does the source give for O=C(CN(C(=O)CNC(=O)c1ccco1)c1ccc(F)c(Cl)c1)NC1CCCCC1 here?
A: inconclusive: -0.818%

Q: For CC(C)CSc1nc2ccccc2[nH]1, which Potency is on record?
A: inconclusive: 35.5 µM [falling, single point]

Q: Which activity change, negative = inhibition does the source give for CN(C)CCn1c2c(c(SCC(=O)NCc3ccccc3)nc1=O)CCCC2 here?
A: inconclusive: -9.9%

Q: With O=C1/C(=C/c2ccccc2O)SC(=S)N1Cc1cccnc1 as the compound, how does the “activity change, negative = inhibition” value read?
A: inactive: 2.05%

Q: Which activity change, negative = inhibition does the source give for CCN(CC)S(=O)(=O)c1ccc(Oc2ccc(S(=O)(=O)N(CC)CC)cc2)cc1 here?
A: inconclusive: -9.76%

Q: With COCCNC(=O)/C(C#N)=c1\s/c(=C\c2ccccc2OC(F)F)c(=O)n1Cc1ccccc1 as the compound, how does the activity change, negative = inhibition read?
A: inconclusive: 17.2%

Q: Which activity change, negative = inhibition does the source give for C=C(C)Cn1c(-c2ccc(OC)cc2)nc2ccccc21 here?
A: inconclusive: -13.9%

Q: Which activity change, negative = inhibition does the source give for O=C(c1ccc(Cl)cc1)N1CCCCC(Sc2nnc(-c3ccc4c(c3)OCO4)o2)C1=O (stereo not drawn) here?
A: inconclusive: -2.3%

Q: For Nc1nnnn1/N=C/C(Br)=C/c1ccccc1, which Potency is on record?
A: inconclusive: 4.47 µM [cytotoxic, partial curve, poor fit]

Q: With COCCCn1c(-c2ccc(S(=O)(=O)N3CCOCC3)cc2)csc1=Nc1ccccc1 as the compound, how does the activity change, negative = inhibition read?
A: inconclusive: 24.4%
